Shown are survivors of the treated group in tumour-free mice. Counts of survivors are from the toxicity check (mostly the fifth day) where no day follows; animals may have died later. Schedule codes are those of the source, read here as Q, the interval in days (D) or hours (H), X, the number of doses. Some structures stand for samples that the source files as different forms (salt, stereo form or complex); doses refer to the form tested. Brackets with × give the number of equal values in this list. Some entries were tested several times; the values are given in rising order.
Test system: CD2F1 mice, nontumored, toxicity/survival
Experiment: NCI In Vivo Anticancer Drug Screen. Data for tumor model Nontumored Animals (Toxicity Test) in CD2F1 (CDF1) mice

For `O=C1c2ccccc2C(=O)c2c(NCCNCCO)ccc(NCCNCCO)c21`, the survivor count (dose: 0.25 mg/kg/injection, schedule: Q01DX005 (iv), vehicle: clinical formulation) was 8 of 8, the survivor count (dose: 0.25 mg/kg/injection, schedule: Q01DX005 (iv), vehicle: water) was 8 of 8 and the survivor count (dose: 0.25 mg/kg/injection, schedule: Q01DX009 (ip), vehicle: clinical formulation) was 8 of 8. The survivor count (dose: 0.25 mg/kg/injection, schedule: Q01DX009 (ip), vehicle: water) was 8 of 8, the survivor count (dose: 0.5 mg/kg/injection, schedule: Q01DX005 (iv), vehicle: clinical formulation) was 8 of 8 and the survivor count (dose: 0.5 mg/kg/injection, schedule: Q01DX005 (iv), vehicle: water) was 8 of 8. The survivor count (dose: 0.5 mg/kg/injection, schedule: Q01DX009 (ip), vehicle: clinical formulation) was 8 of 8, the survivor count (dose: 0.5 mg/kg/injection, schedule: Q01DX009 (ip), vehicle: water) was 8 of 8 and the survivor count (dose: 1.0 mg/kg/injection, schedule: Q01DX005 (iv), vehicle: clinical formulation) was 8 of 8. The survivor count (dose: 1.0 mg/kg/injection, schedule: Q01DX005 (iv), vehicle: water) was 8 of 8, the survivor count (dose: 1.0 mg/kg/injection, schedule: Q01DX009 (ip), vehicle: clinical formulation) was 8 of 8 and the survivor count (dose: 1.0 mg/kg/injection, schedule: Q01DX009 (ip), vehicle: water) was 8 of 8. For the same compound, the survivor count (dose: 2.0 mg/kg/injection, schedule: Q01DX005 (iv), vehicle: clinical formulation) was 8 of 8, the survivor count (dose: 2.0 mg/kg/injection, schedule: Q01DX005 (iv), vehicle: water) was 7 of 7 and the survivor count (dose: 2.0 mg/kg/injection, schedule: Q01DX009 (ip), vehicle: clinical formulation) was 8 of 8. The survivor count (dose: 2.0 mg/kg/injection, schedule: Q01DX009 (ip), vehicle: water) was 7 of 7, the survivor count (dose: 4.0 mg/kg/injection, schedule: Q01DX005 (iv), vehicle: clinical formulation) was 8 of 8 and the survivor count (dose: 4.0 mg/kg/injection, schedule: Q01DX005 (iv), vehicle: water) was 8 of 8. For the same compound, the survivor count (dose: 4.0 mg/kg/injection, schedule: Q01DX009 (ip), vehicle: clinical formulation) was 8 of 8, the survivor count (dose: 4.0 mg/kg/injection, schedule: Q01DX009 (ip), vehicle: water) was 8 of 8 and the survivor count (dose: 6.0 mg/kg/injection, schedule: Q01DX001 (iv), vehicle: other) was 10 of 10. For the same compound, the survivor count (dose: 6.01 mg/kg/injection, schedule: Q01DX001 (iv), vehicle: acid diluted with saline) was 10 of 10, the survivor count (dose: 8.0 mg/kg/injection, schedule: Q01DX001 (iv), vehicle: other) was 10 of 10 and the survivor count (dose: 8.0 mg/kg/injection, schedule: Q01DX001 (iv), vehicle: saline) was 10 of 10. For the same compound, the survivor count (dose: 8.0 mg/kg/injection, schedule: Q01DX005 (iv), vehicle: clinical formulation) was 8 of 8, the survivor count (dose: 8.0 mg/kg/injection, schedule: Q01DX005 (iv), vehicle: water) was 8 of 8 and the survivor count (dose: 8.0 mg/kg/injection, schedule: Q01DX009 (ip), vehicle: clinical formulation) was 8 of 8. The survivor count (dose: 8.0 mg/kg/injection, schedule: Q01DX009 (ip), vehicle: water) was 8 of 8, the survivor count (dose: 8.01 mg/kg/injection, schedule: Q01DX001 (iv), vehicle: acid diluted with saline) was 10 of 10 (2×) and the survivor count (dose: 8.01 mg/kg/injection, schedule: Q01DX001 (iv), vehicle: saline) was 10 of 10. The survivor count (dose: 10.67 mg/kg/injection, schedule: Q01DX001 (iv), vehicle: acid diluted with saline) was 10 of 10 (2×), the survivor count (dose: 10.67 mg/kg/injection, schedule: Q01DX001 (iv), vehicle: saline) was 10 of 10 and the survivor count (dose: 10.7 mg/kg/injection, schedule: Q01DX001 (iv), vehicle: other) was 10 of 10. For the same compound, the survivor count (dose: 10.7 mg/kg/injection, schedule: Q01DX001 (iv), vehicle: saline) was 9 of 10 and 10 of 10, the survivor count (dose: 14.2 mg/kg/injection, schedule: Q01DX001 (iv), vehicle: other) was 10 of 10 and the survivor count (dose: 14.2 mg/kg/injection, schedule: Q01DX001 (iv), vehicle: saline) was 10 of 10. For the same compound, the survivor count (dose: 14.24 mg/kg/injection, schedule: Q01DX001 (ip), vehicle: saline) was 10 of 10, the survivor count (dose: 14.24 mg/kg/injection, schedule: Q01DX001 (iv), vehicle: acid diluted with saline) was 9 of 10 and 10 of 10 and the survivor count (dose: 14.24 mg/kg/injection, schedule: Q01DX001 (iv), vehicle: saline) was 10 of 10. The survivor count (dose: 16.0 mg/kg/injection, schedule: Q01DX005 (iv), vehicle: clinical formulation) was 6 of 8, the survivor count (dose: 16.0 mg/kg/injection, schedule: Q01DX005 (iv), vehicle: water) was 8 of 8 and the survivor count (dose: 16.0 mg/kg/injection, schedule: Q01DX009 (ip), vehicle: clinical formulation) was 8 of 8. For the same compound, the survivor count (dose: 16.0 mg/kg/injection, schedule: Q01DX009 (ip), vehicle: water) was 7 of 8, the survivor count (dose: 18.95 mg/kg/injection, schedule: Q01DX001 (ip), vehicle: saline) was 10 of 10 and the survivor count (dose: 18.98 mg/kg/injection, schedule: Q01DX001 (iv), vehicle: acid diluted with saline) was 10 of 10 (2×). The survivor count (dose: 18.98 mg/kg/injection, schedule: Q01DX001 (iv), vehicle: saline) was 10 of 10, the survivor count (dose: 19.0 mg/kg/injection, schedule: Q01DX001 (iv), vehicle: other) was 10 of 10 and the survivor count (dose: 19.0 mg/kg/injection, schedule: Q01DX001 (iv), vehicle: saline) was 10 of 10. The survivor count (dose: 23.3 mg/kg/injection, schedule: Q01DX001 (ip), vehicle: acid diluted with saline) was 10 of 10, the survivor count (dose: 23.3 mg/kg/injection, schedule: Q01DX001 (sc), vehicle: acid diluted with saline) was 10 of 10 and the survivor count (dose: 25.3 mg/kg/injection, schedule: Q01DX001 (iv), vehicle: other) was 10 of 10. The survivor count (dose: 25.3 mg/kg/injection, schedule: Q01DX001 (iv), vehicle: saline) was 10 of 10, the survivor count (dose: 25.31 mg/kg/injection, schedule: Q01DX001 (ip), vehicle: saline) was 10 of 10 and the survivor count (dose: 25.31 mg/kg/injection, schedule: Q01DX001 (iv), vehicle: acid diluted with saline) was 10 of 10 (2×). The survivor count (dose: 25.31 mg/kg/injection, schedule: Q01DX001 (iv), vehicle: saline) was 10 of 10, the survivor count (dose: 30.0 mg/kg/injection, schedule: Q01DX001 (ip), vehicle: saline) was 10 of 10 and the survivor count (dose: 30.0 mg/kg/injection, schedule: Q01DX001 (sc), vehicle: saline) was 10 of 10. The survivor count (dose: 32.0 mg/kg/injection, schedule: Q01DX005 (iv), vehicle: clinical formulation) was 7 of 8, the survivor count (dose: 32.0 mg/kg/injection, schedule: Q01DX005 (iv), vehicle: water) was 8 of 8 and the survivor count (dose: 32.0 mg/kg/injection, schedule: Q01DX009 (ip), vehicle: clinical formulation) was 8 of 8. The survivor count (dose: 32.0 mg/kg/injection, schedule: Q01DX009 (ip), vehicle: water) was 8 of 8, the survivor count (dose: 33.7 mg/kg/injection, schedule: Q01DX001 (iv), vehicle: other) was 6 of 10 and 8 of 10 and the survivor count (dose: 33.7 mg/kg/injection, schedule: Q01DX001 (iv), vehicle: saline) was 10 of 10. For the same compound, the survivor count (dose: 33.75 mg/kg/injection, schedule: Q01DX001 (ip), vehicle: saline) was 10 of 10, the survivor count (dose: 33.75 mg/kg/injection, schedule: Q01DX001 (iv), vehicle: acid diluted with saline) was 10 of 10 (2×) and the survivor count (dose: 33.75 mg/kg/injection, schedule: Q01DX001 (iv), vehicle: saline) was 10 of 10. For the same compound, the survivor count (dose: 38.9 mg/kg/injection, schedule: Q01DX001 (ip), vehicle: acid diluted with saline) was 10 of 10, the survivor count (dose: 38.9 mg/kg/injection, schedule: Q01DX001 (sc), vehicle: acid diluted with saline) was 10 of 10 and the survivor count (dose: 45.0 mg/kg/injection, schedule: Q01DX001 (ip), vehicle: saline) was 10 of 10. The survivor count (dose: 45.0 mg/kg/injection, schedule: Q01DX001 (iv), vehicle: acid diluted with saline) was 8 of 10 and 10 of 10 (2×), the survivor count (dose: 45.0 mg/kg/injection, schedule: Q01DX001 (iv), vehicle: other) was 2 of 10 and 5 of 10 and the survivor count (dose: 45.0 mg/kg/injection, schedule: Q01DX001 (iv), vehicle: saline) was 10 of 10. The survivor count (dose: 50.2 mg/kg/injection, schedule: Q01DX001 (ip), vehicle: saline) was 10 of 10, the survivor count (dose: 50.2 mg/kg/injection, schedule: Q01DX001 (sc), vehicle: saline) was 10 of 10 and the survivor count (dose: 60.0 mg/kg/injection, schedule: Q01DX001 (ip), vehicle: saline) was 5 of 5. For the same compound, the survivor count (dose: 60.0 mg/kg/injection, schedule: Q01DX001 (iv), vehicle: acid diluted with saline) was 1 of 1, 10 of 10, 5 of 5, the survivor count (dose: 60.0 mg/kg/injection, schedule: Q01DX001 (iv), vehicle: other) was 0 of 10 and the survivor count (dose: 60.0 mg/kg/injection, schedule: Q01DX001 (iv), vehicle: saline) was 5 of 10, 10 of 10, 8 of 8. The survivor count (dose: 64.0 mg/kg/injection, schedule: Q01DX005 (iv), vehicle: clinical formulation) was 0 of 8, the survivor count (dose: 64.0 mg/kg/injection, schedule: Q01DX005 (iv), vehicle: water) was 0 of 8 and the survivor count (dose: 64.0 mg/kg/injection, schedule: Q01DX009 (ip), vehicle: clinical formulation) was 7 of 8. The survivor count (dose: 64.0 mg/kg/injection, schedule: Q01DX009 (ip), vehicle: water) was 8 of 8, the survivor count (dose: 64.8 mg/kg/injection, schedule: Q01DX001 (ip), vehicle: acid diluted with saline) was 10 of 10 and the survivor count (dose: 64.8 mg/kg/injection, schedule: Q01DX001 (sc), vehicle: acid diluted with saline) was 10 of 10. For the same compound, the survivor count (dose: 80.0 mg/kg/injection, schedule: Q01DX001 (iv), vehicle: acid diluted with saline) was 6 of 6, the survivor count (dose: 80.0 mg/kg/injection, schedule: Q01DX001 (iv), vehicle: other) was 0 of 10 and the survivor count (dose: 80.0 mg/kg/injection, schedule: Q01DX001 (iv), vehicle: saline) was 0 of 10, 1 of 1, 10 of 10. For the same compound, the survivor count (dose: 83.6 mg/kg/injection, schedule: Q01DX001 (ip), vehicle: saline) was 10 of 10, the survivor count (dose: 83.6 mg/kg/injection, schedule: Q01DX001 (sc), vehicle: saline) was 10 of 10 and the survivor count (dose: 106.7 mg/kg/injection, schedule: Q01DX001 (iv), vehicle: saline) was 0 of 10. The survivor count (dose: 108.0 mg/kg/injection, schedule: Q01DX001 (ip), vehicle: acid diluted with saline) was 10 of 10, the survivor count (dose: 108.0 mg/kg/injection, schedule: Q01DX001 (sc), vehicle: acid diluted with saline) was 10 of 10 and the survivor count (dose: 128.0 mg/kg/injection, schedule: Q01DX009 (ip), vehicle: clinical formulation) was 4 of 8. The survivor count (dose: 128.0 mg/kg/injection, schedule: Q01DX009 (ip), vehicle: water) was 1 of 8, the survivor count (dose: 139.0 mg/kg/injection, schedule: Q01DX001 (ip), vehicle: saline) was 10 of 10 and the survivor count (dose: 139.0 mg/kg/injection, schedule: Q01DX001 (sc), vehicle: saline) was 10 of 10. The survivor count (dose: 180.0 mg/kg/injection, schedule: Q01DX001 (ip), vehicle: acid diluted with saline) was 1 of 10, the survivor count (dose: 180.0 mg/kg/injection, schedule: Q01DX001 (sc), vehicle: acid diluted with saline) was 10 of 10 and the survivor count (dose: 232.0 mg/kg/injection, schedule: Q01DX001 (ip), vehicle: saline) was 0 of 10 and 1 of 10. The survivor count (dose: 232.0 mg/kg/injection, schedule: Q01DX001 (sc), vehicle: saline) was 10 of 10, the survivor count (dose: 300.0 mg/kg/injection, schedule: Q01DX001 (ip), vehicle: acid diluted with saline) was 0 of 10 and the survivor count (dose: 300.0 mg/kg/injection, schedule: Q01DX001 (sc), vehicle: acid diluted with saline) was 0 of 10 and 6 of 10. For the same compound, the survivor count (dose: 387.0 mg/kg/injection, schedule: Q01DX001 (ip), vehicle: saline) was 0 of 10, the survivor count (dose: 387.0 mg/kg/injection, schedule: Q01DX001 (sc), vehicle: saline) was 0 of 10 and 1 of 10 and the survivor count (dose: 500.0 mg/kg/injection, schedule: Q01DX001 (ip), vehicle: acid diluted with saline) was 0 of 10 and 0 of 2. For the same compound, the survivor count (dose: 500.0 mg/kg/injection, schedule: Q01DX001 (sc), vehicle: acid diluted with saline) was 0 of 10 and 1 of 10, the survivor count (dose: 645.0 mg/kg/injection, schedule: Q01DX001 (ip), vehicle: saline) was 0 of 10 and 0 of 9 and the survivor count (dose: 645.0 mg/kg/injection, schedule: Q01DX001 (sc), vehicle: saline) was 0 of 10.
